Experimental data published in article PMC12040169 (PLOS Biology, 2025).
Some of the results follow.

The molecules below were run on T1, CTL2-GFP (C. trachomatis L2/434/Bu, GFP-expressing). Conditions: bulk GFP, single well; 28.5 h, 10 µM; inhibitor.
T1 construct: L2/434/Bu, GFP-expressing
Parameters: species or system HeLa; Intracellular C. trachomatis growth in HeLa cells, bulk GFP fluorescence relative to DMSO

SMILES | % of control remaining [%]
Cc1cc(C)c(C)c(S(=O)(=O)Nc2cc(S(=O)(=O)N3CCOCC3)ccc2F)c1C [CBK269698] | 152.197
O=C(COc1ccccc1Cl)Nc1cccc(NC(=O)c2cccc(Cl)c2)c1 [CBK263651] | 97.3154
Cc1nc2ncccn2c1-c1csc(Nc2ccc(C(=O)O)cc2)n1 [CBK263284] | 91.1768
O=C(c1ccncc1)N1CCc2ccccc21 [CBK200280] | 104.699
O=C(Nc1ccc2[nH]ccc2c1)N1CCc2ccccc2C1 [CBK155289] | 110.004
CCCNCc1ccc(-c2nnn(CC(=O)NCc3ccc(C4CCC4)cc3)n2)cc1 [CBK167525C] | 122.362
O=c1n(CC2CCCCC2)c2ccccc2n1S(=O)(=O)c1cccc(Cl)c1 [CBK106521] | 145.624
Cc1nnc(CN2CCOC(c3nc(C(C)(C)C)cs3)C2)n1C (stereo not drawn) [CBK305772] | 183.514
O=C(CSCc1c(Cl)cccc1Cl)Nc1ccc(S(=O)(=O)N2CCOCC2)cc1 [CBK266276] | 118.516
CC1CCC(C(C)C)C(OCC(O)CN2CCN(C)CC2)C1 (stereo not drawn) [CBK278213C] | 113.322
CC(C)Cc1nc(C(=O)N2CCC3(C2)NC(=O)NC3=O)cs1 (stereo not drawn) [CBK305534] | 128.85
Cc1ccc(NC(=O)c2ccccc2NS(=O)(=O)c2ccc(C(C)C)cc2)cc1 [CBK113800] | 119.981
O=C1O[C@@H](CO)CN1c1ccc(N(Cc2ccccc2)Cc2ccccc2)c(F)c1 [CBK016873] | 78.5422
CC1CCc2c(C(=O)Nc3ncc(Cc4ccccc4)s3)csc2C1 (stereo not drawn) [CBK300531] | 109.488
COc1ccc(CCNC(=S)n2cc(C)cn2)cc1OC [CBK267001] | 165.666
CC(C)[C@@H](CO)Nc1nccnc1-c1ccoc1 [CBK036648] | 195.805
c1ccc(Nc2c(-c3ccccc3)nc3[nH]cnn23)cc1 [CBK287284] | 94.8389
COc1ccc(C(=O)Nc2nnc(-c3ccc(OC)c(OC)c3)o2)cc1OC [CBK287745] | 104.465
CCOC(=O)/C(=N/O)C(=O)c1c[nH]c2ccccc12 [CBK260979] | 116.974
Cc1cc(C(F)(F)F)nn1CCC(=O)Nc1cnn(C)c1C(=O)O [CBK286817] | 111.605

3 compounds out of the list, sorted by molar mass, ascending.
SMILES | % of control remaining [%]
CC(C)Cc1nc(C(=O)N2CCC3(C2)NC(=O)NC3=O)cs1 (stereo not drawn) [CBK305534] | 128.85
Cc1nnc(CN2CCOC(c3nc(C(C)(C)C)cs3)C2)n1C (stereo not drawn) [CBK305772] | 183.514
COc1ccc(C(=O)Nc2nnc(-c3ccc(OC)c(OC)c3)o2)cc1OC [CBK287745] | 104.465

(continued)

SMILES | % of control remaining [%]
CC1CCc2c(sc3ncnc(SCC(=O)N(C)CCC#N)c23)C1 (stereo not drawn) [CBK305896] | 118.527
c1csc(-c2cncc(NCc3ccncc3)n2)c1 [CBK065583] | 171.584
O=C(c1ccoc1)N1CCC2(CCCN(CCCn3c(=O)[nH]c4ccccc43)C2)C1 (stereo not drawn) [CBK132818] | 142.826
CCOc1ccccc1NC(=O)CN(c1cc(C(F)(F)F)ccc1Cl)S(C)(=O)=O [CBK264627] | 111.115
CCOC(=O)c1c(-c2ccc(C)o2)csc1NC(=O)CN1CCCCC1C (stereo not drawn) [CBK265917] | 163.994
CSCCC(Nc1ncnc2c1c(C)c(C)n2Cc1ccco1)C(=O)O (stereo not drawn) [CBK307568] | 164.302
COc1ccc2c(c1)c(C(=O)N1CCC3(CCNCC3)CC1)c(C)n2C [CBK306562] | 163.885
O=C(Cc1cccs1)N1CCC(O)(c2ccccn2)CC1 [CBK283587] | 142.927
COC(=O)C1=C(C)N(c2cccc(C(F)(F)F)c2)C(=O)/C1=C\c1ccc(C(=O)O)cc1 [CBK265129] | 130.672
CN1C2CCC1CC(OC(=O)CNC1CCCCC1)C2 (stereo not drawn) [CBK278161C] | 137.808
Cn1nc(-c2ccc(S(=O)(=O)Nc3nc(=O)[nH]cc3F)s2)cc1C(F)(F)F [CBK067574] | 117.548
CCc1nc(CN(C(C)=O)C2CCN(CCc3ccccn3)C2)no1 (stereo not drawn) [CBK305372] | 80.4847
COc1ccc(Cl)cc1NC(=S)NNC(=O)c1cc(C)nc2ccccc12 [CBK266920] | 145.127
Cc1sc2nc(SCCCN3C(=O)c4cccc5cccc(c45)C3=O)nc(N)c2c1C [CBK264424] | 100
CC(NC(=O)CCc1nc2ccccc2n1C)c1ccccn1 (stereo not drawn) [CBK281823] | 118.367
CSCCN1CCC2(CC1)CN(C(=O)C(C)C)c1ccccc12 [CBK131473] | 126.229
CC[C@H]1CN(C(=O)C2CC2)CC[C@H]1CC(=O)N(C)CC#N [CBK289132] | 156.456
O=C(NCCN1CCOCC1)NC(=O)c1ccc(Cl)cc1 [CBK269446] | 124.334
NC(=O)C1(N2CCCCC2)CCN(C(=S)NC2CCCC2)CC1 [CBK091884] | 156.313
